In PubChem BioAssay AID1487 (National Center for Advancing Translational Sciences (NCATS), 2009):
This is one part of the list. Shown are side measurements of this screen, not its main read-out; they come without a call. Compounds called inactive in the main read-out are mostly missing here. Words in brackets tell the shape of the fitted curve; partial curves, single points and poor fits give uncertain potencies.

Assay: qHTS Assay for Modulators of Lamin A Splicing
Settings: HeLa LMNA splicing GFP/RFP minigene ratio, 48 h
Procedure, shortened: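 Read-out is the ratio of GFP to DsRed2 object intensity, acquired by 488 nm laser-scanning cytometry on HeLa lamin A-EGFP minigene reporter cells. Compound incubation 48 hrs at 37 °C in Opti-MEM with 2% FBS; DMSO 0.5% final.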

[1] = measured here: GFP splicing reporter channel
[2] = measured here: RFP viability control channel

Row | Compound | AC50 [1] | AC50 [2]
1 | CS(=O)(=O)N(CC(=O)NCCSc1ccccn1)c1cccc2ccccc12 | 15.8 µM [rising, partial curve, poor fit] | 11.2 µM [rising, partial curve, poor fit]
2 | CCCn1c(-c2cccnc2Cl)nc2cc(Cl)c(Cl)cc21 | – | 22.4 µM [rising, single point]
3 | CCCCC(=O)OC1=CN(Cc2ccccc2)S(=O)(=O)c2ccccc21 | – | 6.31 µM [rising, single point]
4 | OCCCNC(=S)Nc1ccc(Nc2ccccc2)cc1 | – | 3.16 µM [rising, partial curve, poor fit]
5 | CS(=O)(=O)N(Cc1ccccc1)c1ccccc1C(=O)N1CCN(c2ccccc2)CC1 | – | 11.2 µM [rising, single point]
6 | Cc1cccc(C)c1-n1c(C)cc(/C=C2\C(=O)NN(c3ccccc3)C2=O)c1C | – | 17.8 µM [falling, single point]
7 | CN(C)S(=O)(=O)c1ccc(Oc2ccccc2)cc1 | – | 35.5 µM [rising, single point]
8 | COc1cc(C)c(C(C)C)cc1S(=O)(=O)n1cnc(C)c1 | – | 5.01 µM [rising, full curve]
9 | O=C(NCCSCc1ccccc1)c1cc(S(=O)(=O)N2CCOCC2)ccc1F | – | 25.1 µM [rising, partial curve, poor fit]
10 | O=C(/C=C/c1ccc(S(=O)(=O)N2CCOCC2)cc1)NC(=S)Nc1ccc(N2CCOCC2)cc1 | – | 12.6 µM [rising, partial curve]
11 | Cc1nc(C(=O)Nc2ccccc2Cl)cc2c1[nH]c1ccccc12 | 7.08 µM [falling, partial curve] | 6.31 µM [falling, full curve]
12 | CC(NCC(O)COCCC12CC3CC(CC(C3)C1)C2)c1ccccc1 (stereo not given) | 20 µM [falling, partial curve] | 11.2 µM [falling, partial curve]
13 | O=C1CC(c2ccc(Cl)c([N+](=O)[O-])c2)c2ccc3ccccc3c2N1 (stereo not given) | 1 µM [rising, partial curve] | 14.1 µM [rising, partial curve]
14 | COc1ccc(OCCN2C(=O)NC(C)(c3ccc(C)cc3)C2=O)cc1 (stereo not given) | – | 35.5 µM [rising, single point]
15 | CC(C)(C)n1nnnc1C(c1cccc(C#N)c1)N1CCCc2ccccc21 (stereo not given) | 11.2 µM [rising, partial curve] | –
16 | Cc1cccc(C(=O)NC(=S)NNC(=O)Cc2ccccc2)c1 | – | 17.8 µM [rising, single point]
17 | Cc1noc(C)c1C(=O)Nc1nc(C23CC4CC(CC(C4)C2)C3)cs1 | – | 31.6 µM [rising, single point]
18 | Cc1cc(Nc2cccc(Cl)c2)nc(N2CCOCC2)n1 | 4.47 µM [rising, partial curve] | 17.8 µM [rising, partial curve, poor fit]
19 | COCCn1c(SC(C)C(=O)Nc2ccc3c(c2)OCCO3)nc2ccccc2c1=O (stereo not given) | – | 3.98 µM [rising, single point]

Row | Compound | AC50 [1] | AC50 [2]
20 | COc1ccc(S(=O)(=O)n2nc(-c3ccco3)nc2NCc2ccc(C(C)C)cc2)cc1 | 3.16 µM [falling, single point] | 3.55 µM [falling, partial curve]
21 | CCN(CC)C(=O)c1ccc(C(=O)c2c(C)cc(C)cc2C)cc1 | – | 31.6 µM [rising, single point]
22 | Cc1ccc(C(=O)NCc2ccc(Cl)c(Cl)c2)o1 | 14.1 µM [rising, single point] | –
23 | O=C(NCCCN1CCN(c2ccccc2F)CC1)c1ccc2nc(CCc3ccccc3)oc2c1 | 22.4 µM [falling, single point] | 17.8 µM [falling, single point]
24 | O=S(=O)(Nc1ccc2ccccc2c1)c1ccccc1 | 11.2 µM [rising, single point] | 14.1 µM [rising, single point]
25 | Brc1ccccc1-c1csnn1 | 3.55 µM [rising, partial curve] | 4.47 µM [rising, partial curve, poor fit]
26 | c1ccc(Sc2ncnc3c2oc2ccccc23)cc1 | 28.2 µM [falling, single point] | –
27 | Cc1ccc2[nH]c3c(N4CCN(Cc5ccc6c(c5)OCO6)CC4)ncnc3c2c1 | 3.16 µM [rising, full curve] | –
28 | Cc1cc(C(=O)O)c(S(C)(=O)=O)s1 | – | 35.5 µM [falling, single point]
29 | Cc1ccc(-c2nnc(N3CC(C)OC(C)C3)c3ccccc23)cc1 (stereo not given) | 11.2 µM [falling, partial curve, poor fit] | 0.0355 µM [falling, full curve, poor fit]
30 | O=C(NNc1c2ccccc2nc2ccccc12)c1cc2ccccc2cc1O | – | 14.1 µM [rising, single point]
31 | COCCn1c(CN2CCC(Cc3ccccc3)CC2)nc2c1c(=O)n(C)c(=O)n2C | – | 1.58 µM [rising, partial curve, poor fit]
32 | CCN1CCN(C2=CC3=CC(=C(C#N)C#N)CCC3CC2)CC1 (stereo not given) | – | 4.47 µM [falling, full curve]
33 | CN(C)c1ccc(-c2cncnc2N(C)Cc2ccco2)cc1 | 14.1 µM [falling, partial curve] | –
34 | COc1ccccc1-c1ccc2ncnc(Nc3ccccc3)c2c1 | 12.6 µM [falling, partial curve] | 15.8 µM [falling, partial curve]
35 | C=CCc1cccc(/C=C/c2cc(=O)c3ccccc3[nH]2)c1O | – | 7.94 µM [rising, partial curve]
36 | Cc1cc(=O)oc2cc(O)ccc12 | 0.00398 µM [falling, full curve, poor fit] | 0.00447 µM [falling, full curve, poor fit]
37 | CNC(=O)c1cc2c(cn1)[nH]c1ccccc12 | 0.0891 µM [rising, full curve, poor fit] | 6.31 µM [rising, partial curve, poor fit]
